{"source": "patent US11090305B2", "about": "“Methods and compositions to reduce oxidative stress” (University of Massachusetts, priority 2009, dated 2021)", "key": {"[1]": {"test_system": "nitrotyrosine", "experiment": "Nitrotyrosine accumulation in gastrocnemius muscle by western blotting (Example 2)", "format": "in vivo, rat", "conditions": "14 days after induction of ischemia", "method": "Rats were sacrificed 14 days after induction of ischemia for measurement of gastrocnemius muscle eNOS and nitrotyrosine expression. […] Samples were homogenized in liquid nitrogen and transferred to NP-40 lysis buffer, comprised of 50 mM HEPES (pH 7.5), 150 mM NaCl, 10% glycerol, 1.5 mM MgCl2, 1 mM EDTA, 100 mM NaF, 1% NP 40, 1 mM PMSF, and […] aprotinin. The lysates were centrifuged, the supernatant recovered, and the protein concentration determined (Pierce Biotechnology, Rockford, Ill.). […] Membranes were incubated overnight at 4° C. with mouse monoclonal anti-nitrotyrosine (Cayman Chemical Co., Ann Arbor, Mich., 1:1000) or mouse monoclonal anti-eNOS (BD Transduction Laboratories, San Diego, Calif., 1:1000) and then incubated for 2 h with horseradish peroxidase-conjugated anti-mouse IgG antibody (Pierce Biotechnology, 1:5000). Immunoreactive bands were visualized using the enhanced chemiluminescence system (Amersham, Arlington Heights, Ill.). Band density was quantitated by standard densitometry and the intensity of the band of interest expressed as a function of the α-tubulin band."}, "[2]": {"test_system": "nitrotyrosine", "experiment": "Nitrotyrosine accumulation in gastrocnemius muscle, hindlimb ischemia (Example 1)", "format": "in vivo, rat", "conditions": "14 days after induction of ischemia"}, "[3]": {"conditions": "reference [13]; cited from earlier work"}, "[4]": {"test_system": "ischemic hindlimb of rats", "experiment": "Evaluation of muscle necrosis (NBT staining, H&E, muscle weights) (Example 1)", "format": "in vivo, rat", "conditions": "ischemic tibialis anterior and gastrocnemius, 17 days after induction of ischemia", "method": "Muscle necrosis was determined using cut sections of tibialis anterior and gastrocnemius muscle. Muscle samples were cut transversely into 3 pieces (cuts made in 2 mm increment); two sections were stained with nitroblue tetrazolium (NBT). These sections were incubated in phosphate buffered saline (pH 7.4) containing 0.033% NBT (Fischer Biotech, Austin, Tex.) and 0.133% NADH (Roche Diagnostics, Indianapolis, Ind.) for 10 min, and then fixed in 4% paraformaldehyde for 24 hours. The areas of viable (stained) and non-viable (unstained) tissue were quantified using Image Pro software (Media Cybernetics, Bethesda, Md.) and the average taken for each rat. The third cut muscle section was used for H&E staining."}, "[5]": {"test_system": "eNOS-dependent vasodilation", "conditions": "literature, patients; cited from earlier work"}}, "note": "At least one compound was matched to its structure with a doubt left."}
{"smiles": "C[C@H](O)[C@H](O)[C@H]1CNc2nc(N)[nH]c(=O)c2N1", "note": "[BH4, tetrahydrobiopterin]", "values": [{"measurement": "nitrotyrosine level in the ischemic gastrocnemius muscle", "setting": "[1]", "value": "significantly less than the level noted in rats fed normal chow"}, {"measurement": "nitrotyrosine accumulation in the ischemic gastrocnemius muscle", "setting": "[2]", "value": "significantly less in the [PBS, +BH4] and [eNOS, −BH4] groups than in the [PBS, −BH4] group"}, {"measurement": "elimination of peroxynitrite relative to thiols (e.g., glutathione) and ascorbate", "setting": "[3]", "value": "6-10 times faster"}, {"measurement": "muscle histology (H&E)", "setting": "[4]", "value": "heavy nuclear staining in the inter-myofibril connective tissue, as well as an inflammatory cell infiltrate"}, {"measurement": "eNOS-dependent vasodilation / vascular reactivity", "setting": "[5]", "value": "improves eNOS-dependent vasodilation in long term smokers and patients with type II diabetes"}]}
